Read-outs that look alike come from different tables or passages of the source.
Tested on: EMT-6 cells
Assay: Cytotoxicity assay (MTS) in EMT-6 cells
Assay type: cell-based
Conditions: Mus musculus

Q: Which EC50 (EMT6, 24 h, read-out: EC50 (μM, 24 hours), EMT-6, MTS assay, 24 hours) does the source give for `O=C(CCCN1CCC(O)(c2ccc(Cl)cc2)CC1)c1ccc(F)cc1` [Haloperidol, reference compound] here?
A: 345 ± 77.8 µM

Q: And the EC50 (EMT6, 48 h, EMT-6, MTS assay, 48 hours, read-out: EC50 (μM, 48 hours))?
A: 39 ± 1.4 µM

Source: patent US8168650B2, “Therapeutic uses of bicyclic ligands of sigma 2 receptor” (priority 2006, dated 2012)
